Data on one molecule can be found in patent US20050142626A1, “Diagnostic methods for asthma” (priority 1999, published 2005).

Common to all, as to assay type: in vivo, Human
Series [1] in a line: 3-Bromotyrosine in bronchoalveolar lavage of asthmatic vs non-asthmatic intensive care patients (GC/MS). As to conditions: BAL protein, FIG. 4.
Series [2] is described as follows: 3-Bromotyrosine and 3-chlorotyrosine in bronchoalveolar lavage after segmental antigen challenge. As to conditions: BAL.
Series [3] in a line: Plasma 3-bromotyrosine in acute asthma exacerbation and following steroid therapy. As to conditions: i.v. then oral steroids over 2 weeks.
The mark [4] stands for this setting: 48 h after ragweed pollen challenge.

For the molecule `N[C@@H](Cc1ccc(O)c(Br)c1)C(=O)O` (single isomer, unassigned) [3-bromotyrosine], the “levels of 3-bromotyrosine in BAL of asthmatic subjects relative to non-asthmatic individuals” value in series [1] is given as “over 100 fold”. Also, in series [2] (setting [4]), the “level following antigen challenge in asthmatic individuals” value was “increased significantly” and the “level following antigen challenge in non-asthmatic subjects” value is recorded as “no increase”. Moreover, in series [2] (baseline, asthmatic vs non-asthmatic, FIG. 5), the “increase in baseline levels in mild asthmatic subjects” value was determined as 2 fold. In addition, in series [3], the “content of 3-bromotyrosine in plasma following steroid therapy” value is listed as “decreased significantly”.
